Reference: PubChem BioAssay AID1259308 (NCATS, 2017)
Shown is one part, drawn at random, of about 59,000 reagents. About 1,510 of all reagents (2.6%) were called active. 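Calls use total luciferase alone and ignore viability, so some active siRNAs may act by altering cell number.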 A number with no mark means an inactive call. Further read-outs or replicates are left out here.

Aim: 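Genes whose loss raises luciferase production in HEK293 cells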 (primary screen)
Cells: human HEK293 embryonic kidney cells stably expressing firefly luciferase (HEK-CMV-Luc2-Hygro)
Knock-down reagent: single siRNA against human genes, 0.8 pmol siRNA per well
Timing: 72 h
Measurement: 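Reporter luminescence and viable-cell signal on separate replicate plates, given as percent of non-targeting control and median/MAD z-scores, plus per-cell luciferase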
Scale: total luciferase, z-score: higher = more reporter protein produced
Call rule: 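Active when the median/MAD z-score for overall luciferase is greater than 3; a gene was taken forward for validation with new siRNAs if at least two of its three siRNAs passed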
Meaning of the calls: active = raised luciferase; inactive = no rise

| Gene | PubChem SID | total luciferase, z-score |
| --- | --- | --- |
| MAPDA | SID160759878 | 1.24 |
| MAPDA | SID160759879 | 0.496 |
| MAPDA | SID160759880 | -1.1 |
| CSTA | SID160730648 | -2.14 |
| CSTA | SID160749885 | 3 (active) |
| CSTA | SID160749906 | -2.13 |
| AUH | SID160722441 | 2.85 |
| AUH | SID160722452 | -0.59 |
| AUH | SID160722463 | -0.65 |
| SUGP1 | SID160746712 | -0.969 |
| SUGP1 | SID160746713 | 2.31 |
| SUGP1 | SID160746714 | -0.331 |
| EVC2 | SID160757201 | -0.672 |
| EVC2 | SID160757202 | 0.228 |
| EVC2 | SID160757203 | -0.719 |
| SSR4 | SID160717390 | 0.288 |
| SSR4 | SID160717391 | -0.159 |
| SSR4 | SID160717392 | -0.364 |
| KRTAP5-4 | SID160725173 | 0.311 |
| KRTAP5-4 | SID160733180 | 0.143 |
| KRTAP5-4 | SID160765580 | 0.161 |
| MYL6B | SID160730630 | 1.44 |
| MYL6B | SID160757778 | -0.824 |
| MYL6B | SID160757779 | 1.24 |
| ABCB5 | SID160764400 | 0.155 |
| ABCB5 | SID160764401 | -0.864 |
| ABCB5 | SID160764402 | 1.31 |
| F2RL2 | SID160762951 | -0.291 |
| F2RL2 | SID160762962 | 0.191 |
| F2RL2 | SID160762974 | -0.592 |
| BBC3 | SID160738395 | 1.51 |
| BBC3 | SID160738396 | 1.46 |
| BBC3 | SID160738397 | -2.53 |
| NFAM1 | SID160758965 | -0.127 |
| NFAM1 | SID160758966 | 2.5 |
| NFAM1 | SID160758967 | -0.746 |
| R3HCC1 | SID160761090 | 5.77 (active) |
| R3HCC1 | SID160761091 | -2.33 |
| R3HCC1 | SID160761092 | -0.291 |
| VGF | SID160718748 | -0.0564 |
| VGF | SID160718749 | -0.343 |
| VGF | SID160718750 | 1.07 |
| POLR1HASP | SID160750638 | 0.156 |
| POLR1HASP | SID160750639 | -1.29 |
| POLR1HASP | SID160750640 | 0.434 |
| ACSM2A | SID160724763 | -0.593 |
| ACSM2A | SID160730580 | 0.314 |
| ACSM2A | SID160756117 | 0.483 |
| ZFP30 | SID160731717 | -0.449 |
| ZFP30 | SID160731725 | -2.36 |
| ZFP30 | SID160731734 | 2.17 |
| AKIRIN1 | SID160734943 | -0.711 |
| AKIRIN1 | SID160749088 | 0.318 |
| AKIRIN1 | SID160749089 | 0.606 |
| HS3ST3A1 | SID160723535 | -0.663 |
| HS3ST3A1 | SID160723537 | 0.446 |
| HS3ST3A1 | SID160723538 | 0.882 |
| CPSF3 | SID160741219 | -2.22 |
| CPSF3 | SID160741220 | -1.97 |
| CPSF3 | SID160741221 | -1.68 |
| RAC1 | SID160715574 | -0.507 |
| RAC1 | SID160715575 | 0.0682 |
| RAC1 | SID160715576 | 0.668 |
| NFIA | SID160777990 | -0.098 |
| NFIA | SID160777991 | -1.04 |
| NFIA | SID160777992 | -0.827 |
| BMP7 | SID160728346 | -1.5 |
| BMP7 | SID160728357 | -1.09 |
| BMP7 | SID160728368 | 0.549 |
| WWC2-AS2 | SID160759261 | 0.944 |
| WWC2-AS2 | SID160759262 | -1.28 |
| WWC2-AS2 | SID160759263 | -1.44 |
| ATP13A5 | SID160764826 | -0.51 |
| ATP13A5 | SID160764827 | 0.132 |
| ATP13A5 | SID160764828 | 0.502 |
